According to patent US20060135569A1, “Use of benzisoselenazolone compounds against ischemic myocardial damage” (priority 2002, published 2006):

Test system: acute myocardial ischemia in anesthetized dogs
Assay: Acute myocardial ischemia and infarction in anesthetized dogs
Assay type: in vivo, dog
Details: Dilthiazem 5 mg/kg, IMM-004 30 mg/kg; n = 5, X ± SD
Experimental: Dogs were divided into three groups: 1, vehicle control group, PEG 1 ml/kg, n=5; 2, dilthiazem group, 5 mg/kg, n=5; 3, IMM-004 group, 30 mg/kg, n=5. The tested drugs were prepared in distilled water at volume of 1 ml/kg. The tested items were administrated via duodenum by animals.

COc1ccc([C@@H]2Sc3ccccc3N(CCN(C)C)C(=O)[C@@H]2OC(C)=O)cc1 [Dilthiazem, reference compound]
Heart area mm^2: 15185.8 ± 876.8 mm^2 | Ventricular area mm^2: 5309.6 ± 427.4 mm^2

O=c1c2cc(Cl)ccc2[se]n1-c1ccccn1 [IMM-004, 5-chloro-2-(2-pyridyl)-1,2-benz-isoselenazol-3(2H)-one]
Heart area mm^2: 17098.9 ± 3224.4 mm^2 | Ventricular area mm^2: 5274.3 ± 832.6 mm^2
